These are yes or no findings as the source states them, for the method shown.
B1: Aux/IAA16 (protein, UniProt O24407 1-236)
chain: MINFEATELRLGLPGGNHGGEMAGKNNGKRGFSETVDLKLNLSSTAMDSVSKVDLENMKEKVVKPPAKAQVVGWPPVRSFRKNVMSGQKPTTGDATEGNDKTSGSSGATSSASACATVAYVKVSMDGAPYLRKIDLKLYKTYQDLSNALSKMFSSFTIGNYGPQGMKDFMNESKLIDLLNGSDYVPTYEDKDGDWMLVGDVPWEMFVDSCKRIRIMKGSEAIGLAPRALEKCKNRS
B2: Aux/IAA15 (protein, UniProt Q9C966 1-179)
chain: MSPEEYVRVWPDSGDLGGTELTLALPGTPTNASEGPKKFGNKRRFLETVDLKLGEAHENNYISSMVTNDQLVGWPPVATARKTVRRKYVKVALDGAAYLRKVDLGMYDCYGQLFTALENMFQGIITICRVTELERKGEFVATYEDKDGDLMLVGDVPWMMFVESCKRMRLMKTGDAIGL
B3: Aux/IAA32 (protein, UniProt Q8RYC6 1-191)
chain: MDPNTPADFFKGSSKFHTYYSQTKKGGGVIDLGLSLRTIQHETYLPPARMIGLDGYGELIDWSQPSYNSITQLKSEDTGHQRLAQGYYNNEGESRGKYAYVKVNLDGLVVGRKVCLVDQGAYATLALQLNDMFGMQTVSGLRLFQTESEFSLVYRDREGIWRNVGDVPWKEFVESVDRMRIARRNDALLPF
B4: Aux/IAA2 (protein, UniProt P49678 1-174)
chain: MAYEKVNELNLKDTELCLGLPGRTEKIKEEQEVSCVKSNNKRLFEETRDEEESTPPTKTQIVGWPPVRSSRKNNNSVSYVKVSMDGAPYLRKIDLKTYKNYPELLKALENMFKVMIGEYCEREGYKGSGFVPTYEDKDGDWMLVGDVPWDMFSSSCKRLRIMKGSDAPALDSSL
B5: Aux/IAA18 (protein, UniProt O24408 1-267)
chain: MEGYSRNGEISPKLLDLMIPQERRNWFHDEKNSVFKTEEKKLELKLGPPGEEDDDESMIRHMKKEPKDKSILSLAGKYFSPSSTKTTSHKRTAPGPVVGWPPVRSFRKNLASGSSSKLGNDSTTSNGVTLKNQKCDAAAKTTEPKRQGGMFVKINMYGVPIGRKVDLSAHNSYEQLSFTVDKLFRGLLAAQRDFPSSIEDEKPITGLLDGNGEYTLTYEDNEGDKMLVGDVPWQMFVSSVKRLRVIKTSEISSALTYGNGKQEKMRR
B6: Aux/IAA5 (protein, UniProt P33078 1-163)
chain: MANESNNLGLEITELRLGLPGDIVVSGESISGKKRASPEVEIDLKCEPAKKSQVVGWPPVCSYRRKNSLERTKSSYVKVSVDGAAFLRKIDLEMYKCYQDLASALQILFGCYINFDDTLKESECVPIYEDKDGDWMLAGDVPWEMFLGSCKRLRIMKRSCNRG
B7: Aux/IAA6 (protein, UniProt Q38824 1-189)
chain: MAKEGLALEITELRLGLPGDNYSEISVCGSSKKKKRVLSDMMTSSALDTENENSVVSSVEDESLPVVKSQAVGWPPVCSYRRKKNNEEASKAIGYVKVSMDGVPYMRKIDLGSSNSYINLVTVLENLFGCLGIGVAKEGKKCEYIIIYEDKDRDWMLVGDVPWQMFKESCKRLRIVKRSDATGFGLQQD
B8: Aux/IAA26 (protein, UniProt Q8LAL2 1-269)
chain: MEGCPRNREIGPKLLDLIPQGRKWYQEDKNNTDQEKKLELRLGPPGGDEEDHSAIKKKNTEIRNIKKETEDKSFHCFNGNHFSPSNKTTSVPHISQKRTAPGPVVGWPPVRSFRKNLASTSSSKLGNESSHGGQINKSDDGEKQVETKKEGMFVKINMDGVPIGRKVDLNAYNSYEQLSFVVDKLFRGLLAAQRDISDGQGEEKPIIGLLDGKGEFTLTYEDNEGDKMLVGDVPWQMFVSSVKRLRVIKSSEISSALTFGCSKQEKMMH
B9: Aux/IAA31 (protein, UniProt Q8H174 1-158)
chain: MEVSNSCSSFSSSSVDSTKPSPSESSVNLSLSLTFPSTSPQREARQDWPPIKSRLRDTLKGRRLLRRGDDTSLFVKVYMEGVPIGRKLDLCVFSGYESLLENLSHMFDTSIICGNRDRKHHVLTYEDKDGDWMMVGDIPWDMFLETVRRLKITRPERY
B10: Aux/IAA3 (protein, UniProt Q38822 1-189)
chain: MDEFVNLKETELRLGLPGTDNVCEAKERVSCCNNNNKRVLSTDTEKEIESSSRKTETSPPRKAQIVGWPPVRSYRKNNIQSKKNESEHEGQGIYVKVSMDGAPYLRKIDLSCYKGYSELLKALEVMFKFSVGEYFERDGYKGSDFVPTYEDKDGDWMLIGDVPWEMFICTCKRLRIMKGSEAKGLGCGV
B11: Aux/IAA1 (protein, UniProt P49677 1-168)
chain: MEVTNGLNLKDTELRLGLPGAQEEQQLELSCVRSNNKRKNNDSTEESAPPPAKTQIVGWPPVRSNRKNNNNKNVSYVKVSMDGAPYLRKIDLKMYKNYPELLKALENMFKFTVGEYSEREGYKGSGFVPTYEDKDGDWMLVGDVPWDMFSSSCQKLRIMKGSEAPTAL
B12: Aux/IAA20 (protein, UniProt O24410 1-175)
chain: MGRGRSSSSSSIESSSKSNPFGASSSTRNLSTDLRLGLSFGTSSGTQYFNGGYGYSVAAPAVEDAEYVAAVEEEEENECNSVGSFYVKVNMEGVPIGRKIDLMSLNGYRDLIRTLDFMFNASILWAEEEDMCNEKSHVLTYADKEGDWMMVGDVPWEMFLSTVRRLKISRANYHY
B13: Aux/IAA27 (protein, UniProt Q9ZSY8 1-305)
chain: MSVSVAAEHDYIGLSEFPTMEATTMSDKTKTRDNNNGLNFKATELRLGLPGSESPERVDSRFLALNKSSCPVSGAKRVFSDAINDSNKWVFSPGSTTATGDVGSGSGPRTSVVKDGKSTTFTKPAVPVKEKKSSATAPASKAQVVGWPPIRSFRKNSMASSQSQKPGNNSETEEAEAKSGPEQPCLYVKVSMEGAPYLRKIDLKTYKSYLELSSALEKMFSCFTIGQFGSHGGCGRDGLNESRLTDLLRGSEYVVTYEDKDSDWMLVGDVPWEMFICSCKKLRIMKSSEAIGLAPRVMEKCRSRN
B14: Aux/IAA34 (protein, UniProt Q9C5X0 1-185)
chain: MYCSDPPHPLHLVASDKQQKDHKLILSWKKPTMDSDPLGVFPNSPKYHPYYSQTTEFGGVIDLGLSLRTIQHEIYHSSGQRYCSNEGYRRKWGYVKVTMDGLVVGRKVCVLDHGSYSTLAHQLEDMFGMQSVSGLRLFQMESEFCLVYRDEEGLWRNAGDVPWNEFIESVERLRITRRNDAVLPF
B15: Aux/IAA12 (protein, UniProt Q38830 1-239)
chain: MRGVSELEVGKSNLPAESELELGLGLSLGGGAWKERGRILTAKDFPSVGSKRSAESSSHQGASPPRSSQVVGWPPIGLHRMNSLVNNQAMKAARAEEGDGEKKVVKNDELKDVSMKVNPKVQGLGFVKVNMDGVGIGRKVDMRAHSSYENLAQTLEEMFFGMTGTTCREKVKPLRLLDGSSDFVLTYEDKEGDWMLVGDVPWRMFINSVKRLRIMGTSEASGLAPRRQEQKDRQRNNPV
B16: Aux/IAA33 (protein, UniProt Q9FKM7 1-171)
chain: MNSFEPQSQDSLQRRFHQDNSTTQQPRDTTTPFIPKPASKNHNNSNSSSGAAGRSFQGFGLNVEDDLVSSVVPPVTVVLEGRSICQRISLDKHGSYQSLASALRQMFVDGADSTDDLDLSNAIPGHLIAYEDMENDLLLAGDLTWKDFVRVAKRIRILPVKGNTRQVKRNE
B17: Aux/IAA28 (protein, UniProt Q9XFM0 1-175)
chain: MEEEKRLELRLAPPCHQFTSNNNINGSKQKSSTKETSFLSNNRVEVAPVVGWPPVRSSRRNLTAQLKEEMKKKESDEEKELYVKINMEGVPIGRKVNLSAYNNYQQLSHAVDQLFSKKDSWDLNRQYTLVYEDTEGDKVLVGDVPWEMFVSTVKRLHVLKTSHAFSLSPRKHGKE
B18: Aux/IAA29 (protein, UniProt Q93WC4 1-251)
chain: MELDLGLSLSPHKSSKLGFNFDLNKHCAIEGAASCLGTEKLRFEATFGLGNVEENCYMPKQRLFALNGQPNEEDEDPLESESSIVYDDEEENSEVVGWPPVKTCMIKYGSYHHRHIRNHHHCPYHHRGRRITAMNNNISNPTTATVGSSSSSSISSRSSMYVKVKMDGVAIARKVDIKLFNSYESLTNSLITMFTEYEDCDREDTNYTFTFQGKEGDWLLRGDVTWKIFAESVHRISIIRDRPCAYTRCLF
B19: Aux/IAA19 (protein, UniProt O24409 1-197)
chain: MEKEGLGLEITELRLGLPGRDVAEKMMKKRAFTEMNMTSSGSNSDQCESGVVSSGGDAEKVNDSPAAKSQVVGWPPVCSYRKKNSCKEASTTKVGLGYVKVSMDGVPYLRKMDLGSSQGYDDLAFALDKLFGFRGIGVALKDGDNCEYVTIYEDKDGDWMLAGDVPWGMFLESCKRLRIMKRSDATGFGLQPRGVDE
B20: Aux/IAA30 (protein, UniProt Q9M1R4 1-172)
chain: MGRGRSSSSSSIESSCKSNPFGVSSSNTRNLSTDLRLGLSFGSSSGQYYNGGDNHEYDGVGAAEEMMIMEEEEQNECNSVGSFYVKVNMEGVPIGRKIDLLSLNGYHDLITTLDYMFNASILWAEEEDMCSEKSHVLTYADKEGDWMMVGDVPWEMFLSSVRRLKISRAYHY
B21: Aux/IAA13 (protein, UniProt Q38831 1-247)
chain: MITELEMGKGESELELGLGLSLGGGTAAKIGKSGGGGAWGERGRLLTAKDFPSVGSKRAADSASHAGSSPPRSSSQVVGWPPIGSHRMNSLVNNQATKSAREEEEAGKKKVKDDEPKDVTKKVNGKVQVGFIKVNMDGVAIGRKVDLNAHSSYENLAQTLEDMFFRTNPGTVGLTSQFTKPLRLLDGSSEFVLTYEDKEGDWMLVGDVPWRMFINSVKRLRVMKTSEANGLAARNQEPNERQRKQPV
B22: Aux/IAA4 (protein, UniProt P33077 1-186)
chain: MEKVDVYDELVNLKATELRLGLPGTEETVSCGKSNKRVLPEATEKEIESTGKTETASPPKAQIVGWPPVRSYRKNNVQTKKSESEGQGNYVKVSMDGAPYLRKIDLTMYKQYPELMKSLENMFKFSVGEYFEREGYKGSDFVPTYEDKDGDWMLVGDVPWEMFVSSCKRLRIMKGSEVKGLGCGGL

Protein sequences, listed by entry. Tags and fused reporters are not part of them. Lines headed by an entry give the natural chain unless they say otherwise; changes in a name come on top.
UniProt Q9FX25: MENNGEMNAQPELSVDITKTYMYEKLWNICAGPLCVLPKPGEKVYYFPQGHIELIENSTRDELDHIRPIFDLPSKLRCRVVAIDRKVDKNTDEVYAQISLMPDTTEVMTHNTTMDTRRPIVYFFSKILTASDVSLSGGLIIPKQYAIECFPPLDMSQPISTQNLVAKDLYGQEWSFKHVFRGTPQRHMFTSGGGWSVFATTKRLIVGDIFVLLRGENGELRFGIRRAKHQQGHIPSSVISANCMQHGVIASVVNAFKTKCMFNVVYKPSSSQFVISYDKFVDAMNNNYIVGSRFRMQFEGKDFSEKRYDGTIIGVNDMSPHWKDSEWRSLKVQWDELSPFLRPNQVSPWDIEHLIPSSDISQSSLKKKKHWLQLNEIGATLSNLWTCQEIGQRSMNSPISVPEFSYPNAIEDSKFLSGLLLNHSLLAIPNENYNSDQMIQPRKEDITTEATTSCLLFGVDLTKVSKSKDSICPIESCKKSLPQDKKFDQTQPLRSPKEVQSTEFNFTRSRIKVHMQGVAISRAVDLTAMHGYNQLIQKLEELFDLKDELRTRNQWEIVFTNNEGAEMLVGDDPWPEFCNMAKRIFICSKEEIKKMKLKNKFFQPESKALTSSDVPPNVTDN
UniProt Q38825: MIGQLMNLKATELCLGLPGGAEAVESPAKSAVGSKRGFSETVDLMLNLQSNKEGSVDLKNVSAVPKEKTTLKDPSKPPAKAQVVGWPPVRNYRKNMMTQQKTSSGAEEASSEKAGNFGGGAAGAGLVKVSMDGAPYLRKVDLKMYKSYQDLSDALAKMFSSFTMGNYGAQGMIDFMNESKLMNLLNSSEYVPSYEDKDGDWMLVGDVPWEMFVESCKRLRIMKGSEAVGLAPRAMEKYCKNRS
UniProt Q38832: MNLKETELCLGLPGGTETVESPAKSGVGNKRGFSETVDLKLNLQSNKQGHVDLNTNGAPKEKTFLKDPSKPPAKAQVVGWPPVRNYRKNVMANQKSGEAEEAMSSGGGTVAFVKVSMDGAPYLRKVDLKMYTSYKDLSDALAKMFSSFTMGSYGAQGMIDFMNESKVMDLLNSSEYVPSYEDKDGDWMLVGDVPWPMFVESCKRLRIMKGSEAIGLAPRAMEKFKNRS
UniProt P93830: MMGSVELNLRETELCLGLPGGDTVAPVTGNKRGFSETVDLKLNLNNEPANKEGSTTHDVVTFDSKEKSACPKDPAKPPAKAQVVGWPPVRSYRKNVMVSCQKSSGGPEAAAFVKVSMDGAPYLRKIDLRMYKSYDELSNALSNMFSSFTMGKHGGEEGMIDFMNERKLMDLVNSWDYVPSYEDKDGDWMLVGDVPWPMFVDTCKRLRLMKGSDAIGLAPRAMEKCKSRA

Target: ARF13 (Arabidopsis thaliana) (UniProt Q9FX25)
Assay: two-hybrid; S. cerevisiae AH109 co-transformed with pGBKT7-ARF (bait) and pGADT7-Aux/IAA (prey); growth on SD/-Ade-His-Leu-Trp against SD/-Leu/-Trp; at least 10 independent colonies; serial dilutions for strength

binding, no binding:
Aux/IAA7 (from UniProt Q38825 1-243)
Aux/IAA14 (from UniProt Q38832 1-228)
Aux/IAA17 (from UniProt P93830 1-229)
B1
B2
B3
B4
B5
B6
B7
B8
B9
B10
B11
B12
B13
B14
B15
B16
B17
B18
B19
B20
B21
B22
